One substance from patent publication US5116816A (Sandoz Ltd., priority 1987, dated 1992) can be followed below.

HELM strings list residues between dots; [ac] is acetyl, [am] amide, other brackets name non-standard units.

This series is described as follows: general procedure: solution-phase peptide synthesis; N-ethyl-N-(3-dimethylamino)propyl carbodiimide / 4-dimethylaminopyridine. Particulars: cyclisation step, on linear precursor.

“PEPTIDE1{[MeBmt].T.[Sar].[MeLeu].L.[MeLeu].A.[D-Hiv].[MeLeu].L.[MeVal]}$PEPTIDE1,PEPTIDE1,1:R1-11:R2$$$V2.0” yielded a cyclisation yield of 89%.
